# Measured values from PubChem BioAssay AID493076 (National Center for Advancing Translational Sciences (NCATS), 2011).
# Amino acid sequences for entries named in this document (tags omitted). A change or cut given only in a name is not applied to a line headed by its entry.
# UniProt P34981: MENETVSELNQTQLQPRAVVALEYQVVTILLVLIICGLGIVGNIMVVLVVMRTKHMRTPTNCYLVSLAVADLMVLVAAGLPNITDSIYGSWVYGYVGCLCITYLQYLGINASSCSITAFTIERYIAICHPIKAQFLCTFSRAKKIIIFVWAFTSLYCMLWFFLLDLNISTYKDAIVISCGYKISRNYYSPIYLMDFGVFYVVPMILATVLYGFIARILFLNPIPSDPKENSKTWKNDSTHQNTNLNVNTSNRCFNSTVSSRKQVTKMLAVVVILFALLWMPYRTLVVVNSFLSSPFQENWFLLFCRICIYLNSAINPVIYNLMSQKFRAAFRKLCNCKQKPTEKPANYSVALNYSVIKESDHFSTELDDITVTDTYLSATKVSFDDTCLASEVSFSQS
# The shares of active, inactive and inconclusive entries below differ from those in the screen. Potencies beside an inconclusive call are fits to weak or partial responses and may not hold up. Calls of active or inactive are those of the source. Calls come from the whole dose curve; as a rule, active = well fitted curve in the direction sought with a large enough effect; inconclusive = small, poorly fitted or top-dose-only effect, or effect the other way, or another doubt; inactive = no such curve, though single readings can be large or run the other way.
# Biological target: Thyrotropin-releasing hormone receptor (Homo sapiens) (UniProt P34981)
# Assay: qHTS for Small Molecule Agonists and Allosteric Enhancers of Human TRH Receptor: Confirmation Screen for Enhancers
# Details: TRH receptor cell assay, enhancer confirmation qHTS; series mostly up to 46.1 µM
# From the text: NIH Chemical Genomics Center [NCGC]
# NIH Molecular Libraries Probe Centers Network [MLPCN]
# Assay Submitter (PI): Marvin Gershengorn
# This project aims to identify small drug-like molecules that activate (agonists) the thyrotropin releasing hormone (TRH) receptor (TRHR) or enhance its TRH-stimulated activity (allosteric enhancers). TRHR, a drug-accessible cell surface receptor expressed in specific brain regions, and its ligand TRH have been implicated in several central nervous system disorders, including depression and anxiety. Small molecule TRHR agonists or allosteric enhancers that are metabolically stable and able to cross the blood-brain barrier might serve as probes to elucidate the roles of brain TRH receptors in animal models, and might be valuable as lead compounds for the development of drugs to treat patients with central nervous system disorders.
# Upon TRHR-Gq activation in TRHR cells, intracellular calcium is released from stores in the endoplasmic reticulum. […] This primary screen measures compound-induced enhancement of an EC20 stimulation of the receptor by its native ligand.
# For the HTS assay freshly prepared cells are plated at a density of 2000/well in 3 ul of complete DMEM medium containing 10% serum in 1536-well plates and cultured over night at 37 C in a humidified incubator with 5% CO2. The next day, 2 ul of a no wash calcium dye (ABD Bioquest) was added to the cells and plates were incubated at room temperature for 1 hour. For the assay, assay plates were loaded into the FDSS kinetic plate reader. A 10 cycle (1 second/cycle) baseline measurement is taken and then the FDSS online 1536 pintool delivers 23 nl of compound library (as well as TRH controls) to the plate. The plate is measured for kinetically at 1 cycle/sec for 180 seconds and is considered to be the agonist portion of the assay (eg, compounds which activate a positive calcium response during this portion are flagged as potential agonists). Following the 180 second read, 1 ul of either an EC20 (positive modulation assay) is delivered by an onboard pipette head. Measurements are taken kinetically for an additional 180 seconds.
# TRHR FDSS Screening Protocol
# 1. Reagent, 3 uL 2000 cells/well 1536 TC treated Black plate in media containing 10% FCS
# 2. Time, 18 hours, 33.5C 5% CO2 (cells grown at 37C)
# 3. Reagent, 2 uL ABD fluo-8 Ca dye
# 4. Time, 30 min-1.5hrs hours, Room temp (6 plates/batch)
# 5. Detector, EX 480/EM 530C, FDSS 10 cycles baseline (1sec/cycle)
# 6. Compound, 23 nL of stock solution from library
# 7. Detector, EX 480/EM 530C, FDSS 230 cycles (1sec/cycle) Agonist mode
# 8. Compound, 1 ul EC20 of TRH made up in HEPES HBSS, 10 nM final
# 9. Detector, EX 480/EM 530C, FDSS 100 cycles (1sec/cycle) Potentiator mode
row,Structure (SMILES),Potency
1,COc1ccccc1N1C(C)=CC(=C(C#N)c2nc3ccccc3s2)C=C1C,"inconclusive: 4.61 µM [activator, partial curve, poor fit]"
2,COc1ccccc1NC(=O)CC1COc2ccccc2O1 (stereo not given),inactive
3,Cc1c(C2(O)C(=O)Nc3ccc(F)cc32)c(=O)n(-c2ccccc2)n1C (stereo not given),inactive
4,Brc1cc2c(cc1CSc1ncccn1)OCO2,inactive
5,N#C/C(=C/c1ccc(N2CCOCC2)o1)C(=O)NC1CCCCC1,"inconclusive: 4.11 µM [activator, single point]"
6,O=C(Cc1ccc(Cl)cc1)Nc1ccccc1C(=O)N1CCCC1,"inconclusive: 2.91 µM [activator, partial curve, poor fit]"
7,CN(C)c1ccc(/C=C/c2nc3ccccc3c(=O)[nH]2)cc1,"inconclusive: 25.9 µM [activator, partial curve, poor fit]"
8,O=C(C1=NN(c2ccccc2)C2C(=O)N(c3ccccc3)C(=O)C12)c1ccccc1 (stereo not given),"inconclusive: 23.1 µM [activator, partial curve]"
9,O=C(c1ccc2c(c1)OCO2)C1CCCN(C(=O)c2cnn(Cc3ccccc3)c2)C1 (stereo not given),inactive
10,O=C(CSc1nc2ccccc2s1)N1c2ccccc2Sc2ccc(C(F)(F)F)cc21,inactive
11,COC(=O)CCCNC(=O)OCc1ccc([N+](=O)[O-])cc1,inactive
12,Cc1cc(=O)[nH]c(SCC(=O)N2CCc3ccccc3C2)n1,"inconclusive: 0.092 µM [activator, full curve, poor fit]"
13,Cn1c(-c2ccc3ccccc3n2)nc2cnccc21,"inconclusive: 1.84 µM [activator, partial curve, poor fit]"
14,COc1ccc(C)cc1S(=O)(=O)N1CCC2(CC1)OCCN2S(=O)(=O)c1cccs1,"inconclusive: 2.59 µM [activator, partial curve, poor fit]"
15,O=C(COc1ncnc2ccccc12)Nc1ccc(S(=O)(=O)N2CCOCC2)cc1,"inconclusive: 6.51 µM [activator, partial curve, poor fit]"
16,CCc1ccc(CN(C)CC(O)COc2cccc3ccccc23)cc1 (stereo not given),"inconclusive: 6.51 µM [activator, partial curve, poor fit]"
17,Cc1cc(SC(C)C(=O)NCC(=O)Nc2ccc(F)c(F)c2F)nc2ccccc12 (stereo not given),"inconclusive: 6.51 µM [activator, single point]"
18,Nc1ccc(/C=C/C(=O)c2cccs2)cc1,"inconclusive: 18.4 µM [activator, partial curve, poor fit]"
19,O=C(CCc1nc2ccccc2c(=O)[nH]1)Nc1cc(Cl)ccc1N1CCCC1,inactive
20,COc1ccc(NS(=O)(=O)c2ccc(N3CCCC3)c(NC(=S)Nc3ccc(SC(F)F)cc3)c2)cc1,inactive

row,Structure (SMILES),Potency
1,NC(=O)CN1CCOCCOCCN(CC(N)=O)CCOCCOCC1,"inconclusive: 29.1 µM [activator, single point]"
2,O=C(NN1C(=O)/C(=C/c2ccc(O)c(O)c2)SC1=S)c1ccccc1,"inconclusive: 1.03 µM [activator, full curve, poor fit]"
3,COc1ccc2c(C)c(C(=O)N3CCN(Cc4ccccc4)CC3)oc2c1,"inconclusive: 6.51 µM [activator, single point]"
4,CCc1ccc(NC(=O)N(Cc2cccnc2)Cc2ccco2)cc1,"inconclusive: 29.1 µM [activator, partial curve, poor fit]"
5,COc1ccc(OCc2n[nH]c(=S)n2N)cc1,"inconclusive: 0.0411 µM [activator, full curve, poor fit]"
6,COc1ccc(-c2nc3cc(C)ccn3c2NC(=O)c2c(F)cccc2Cl)cc1,"inconclusive: 0.0184 µM [activator, full curve, poor fit]"
7,Cc1nc(C)n(CC(O)COc2ccc3cc(Br)ccc3c2)n1 (stereo not given),"inconclusive: 32.6 µM [activator, partial curve, poor fit]"
8,CCc1ccc(NC(=O)C[n+]2cc(-c3ccc(C)cc3)n3c2CCC3)cc1,inactive
9,OC(COc1ccccc1)CN1CCCCCC1 (stereo not given),"inconclusive: 2.31 µM [activator, partial curve, poor fit]"
10,CCOc1cc(/C=C2/SC(=S)N(CC3CCCO3)C2=O)ccc1O (stereo not given),"inconclusive: 0.0259 µM [activator, full curve, poor fit]"
11,CCOc1cc(CN2CCCC(CO)(Cc3ccc(F)cc3F)C2)ccc1OC (stereo not given),inactive
12,O=C(Cc1cccs1)N=Nc1c(O)[nH]c2ccccc12,inactive
13,COc1ccc(CNCc2cccc3ccccc23)cc1,"inconclusive: 18.4 µM [activator, partial curve, poor fit]"
14,COc1ccc2c(c1)cc(C(=O)N/N=C/c1c(O)c(C(=O)O)cc3ccccc13)n2C,"inconclusive: 20.6 µM [activator, single point]"
15,Cc1ccc2[nH]c(CCN(C)C)c(CC#N)c2c1,inactive
16,Cc1cc(C)c2c(n1)nn1c(NCCCN(C)C)cc(C)nc21,inactive
17,CC1=CC(=C(C#N)c2nc3ccccc3s2)C=C(C)N1CC1CCCO1 (stereo not given),"inconclusive: 29.1 µM [activator, single point]"
18,CCc1cc(-c2n[nH]c(C)c2-c2nc(C)cs2)c(O)cc1OC,"inconclusive: 0.082 µM [activator, full curve, poor fit]"
19,O=C(N/N=C\c1c(O)ccc2ccccc12)c1ccc(S(=O)(=O)N2CCCCC2)cc1,"inconclusive: 18.4 µM [activator, partial curve]"
20,CCOC(=O)Cc1nnc(NC(=O)COc2ccc(C)cc2)s1,"inconclusive: 7.31 µM [activator, partial curve, poor fit]"

# Copied from the results shown (two entries):
row,Structure (SMILES),Potency
4,Brc1cc2c(cc1CSc1ncccn1)OCO2,inactive
5,N#C/C(=C/c1ccc(N2CCOCC2)o1)C(=O)NC1CCCCC1,"inconclusive: 4.11 µM [activator, single point]"
